From PubChem BioAssay AID1259354 (Paczesny and Yang Labs, IUPUI and University of Michigan, 2018)
Screen size: about 78,000 compounds; about 1,800 (2.3%) were called active. The inconclusive results got no clear call from the source; some entries with a clear call stand among them for comparison. No stated cut-off is given here; in the data, active means inhibition above about 30%; inconclusive means mostly about 10% to 28%; inactive means weaker than that.

Chains of the proteins cited; added tags and fusions are not shown. Lines headed by an entry give the natural chain unless they say otherwise; changes in a name come on top.
UniProt Q01638: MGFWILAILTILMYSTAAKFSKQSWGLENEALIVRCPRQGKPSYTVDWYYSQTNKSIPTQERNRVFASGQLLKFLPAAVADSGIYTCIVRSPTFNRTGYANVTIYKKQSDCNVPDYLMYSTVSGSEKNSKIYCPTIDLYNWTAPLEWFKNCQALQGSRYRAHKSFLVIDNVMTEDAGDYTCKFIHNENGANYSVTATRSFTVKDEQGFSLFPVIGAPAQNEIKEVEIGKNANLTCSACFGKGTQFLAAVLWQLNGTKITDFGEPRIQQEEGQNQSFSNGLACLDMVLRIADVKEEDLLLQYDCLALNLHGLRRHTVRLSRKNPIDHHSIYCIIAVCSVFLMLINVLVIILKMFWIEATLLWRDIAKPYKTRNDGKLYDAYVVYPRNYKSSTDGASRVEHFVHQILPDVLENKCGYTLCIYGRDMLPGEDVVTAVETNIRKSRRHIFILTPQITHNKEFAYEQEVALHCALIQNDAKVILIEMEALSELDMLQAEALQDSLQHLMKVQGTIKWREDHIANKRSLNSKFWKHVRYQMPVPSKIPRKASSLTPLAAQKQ

target: Interleukin-1 receptor-like 1 (Homo sapiens) (UniProt Q01638); experiment: blocks human ST2 binding to IL-33, primary screen, biochemical, AlphaLISA (AID 1259354); conditions: AlphaLISA ST2-Fc/biotin-IL-33 interaction, 1 h; at 17 µM, hits give high values

Row | SMILES | inhibition
1 | O=C(NCC1Cc2cccc(-c3cnccn3)c2O1)C1CCCc2c1[nH]c1ccccc21 (centres undefined) | inconclusive: 10%
2 | O=C(O)CNC(=O)CN1C(=O)c2cccc([N+](=O)[O-])c2C1=O | inactive
3 | O=C(c1cc(-c2ccco2)on1)N1CCN(C(c2ccccc2)c2ccccc2)CC1 | inconclusive: 16%
4 | C=CCNc1nc(C2(C)CC3(CC(C)(C)OC3=O)C(=O)O2)cs1 (centres undefined) | inactive
5 | O=C(O)c1ccc(N2CCCCC2)cc1 | inconclusive: 11%
6 | COc1ccc(N2CCN(C(=O)COc3ccc(Cl)cc3)CC2)cc1 | inconclusive: 16%
7 | Cn1c(=O)c2c3c(sc2n2c(SCC(N)=O)nnc12)COC(C)(C)C3 | inconclusive: 11%
8 | COc1ccc(-c2c3c(=O)n(C)c(=O)n(C)c3cn2C2CCCCC2)cc1 | inconclusive: 10%
9 | CCSc1nc2sc3c(c2c(=O)n1Cc1ccccc1)CC(C)(C)OC3 | inconclusive: 17%
10 | Cc1ccc(-n2c(=O)n(Cc3ccccc3)c3c(C(N)=O)nc(-c4ccc(F)cc4)nc32)cc1C | inactive
11 | Cc1c(Cl)cccc1NS(=O)(=O)c1ccc(NS(C)(=O)=O)cc1 | inactive
12 | CN1C[C@@H](NC(=O)NCc2ccccc2)C[C@H]1c1nc(-c2ccc(Cl)cc2)no1 | inactive
13 | C=Cc1cccc(CN(C)Cc2cnn(C)c2C)c1 | inconclusive: 12%
14 | CCC(C)NC(=O)Cn1c(=O)n(-c2ccccc2)c(=O)c2sccc21 (centres undefined) | inconclusive: 14%
15 | Cn1c(=O)c2c(nc(N3CCCCC3)n2CC(O)COc2ccc(Cl)cc2)n(C)c1=O (centres undefined) | inconclusive: 17%
16 | OCc1cc(-c2ccc(-c3ccn[nH]3)cc2)ccn1 | inconclusive: 13%
17 | O=C(Cn1c2ccccc2c(=O)c2ccccc21)N1CCN(c2ccccc2)CC1 | inactive
18 | CCc1nc(NC)nc(OC)n1 | active: 68%
19 | CC(=O)N1CCN([C@H]2[C@@H]3OC[C@@H](O3)[C@@H](NC(=O)Nc3ccc(F)cc3)[C@@H]2O)CC1 | inconclusive: 15%
20 | O=C1c2ccccc2C(=O)N1CCCN1CCN(CCCN2C(=O)c3ccccc3C2=O)CC1 | inconclusive: 23%

From no. 1 as far as 4, as listed above:
Row | SMILES | inhibition
1 | O=C(NCC1Cc2cccc(-c3cnccn3)c2O1)C1CCCc2c1[nH]c1ccccc21 (centres undefined) | inconclusive: 10%
2 | O=C(O)CNC(=O)CN1C(=O)c2cccc([N+](=O)[O-])c2C1=O | inactive
3 | O=C(c1cc(-c2ccco2)on1)N1CCN(C(c2ccccc2)c2ccccc2)CC1 | inconclusive: 16%
4 | C=CCNc1nc(C2(C)CC3(CC(C)(C)OC3=O)C(=O)O2)cs1 (centres undefined) | inactive

Remaining list, next part

Row | SMILES | inhibition
21 | CCn1ccnc1CN(C)Cc1sccc1C | inconclusive: 12%
22 | Nc1nonc1-c1nc2ccccc2n1Cc1cccc(Cl)c1 | inconclusive: 12%
23 | Cc1nc2sc(C(c3ccc(Cl)cc3)N3CCCC(C)C3)c(O)n2n1 (centres undefined) | inactive
24 | O=C1S/C(=C\c2ccccc2)C(=O)N1CNc1cccc(C(F)(F)F)c1 | inconclusive: 12%
25 | O=C(OC(c1ccc2c(c1)OCO2)c1nccc2ccccc12)c1ccco1 (centres undefined) | inconclusive: 25%
26 | CCOC(=O)c1c(NC(=O)c2ccc(Br)o2)sc(C(C)=O)c1C | inactive
27 | O=C(Cn1cnc2scc(-c3cccc([N+](=O)[O-])c3)c2c1=O)NCc1ccccc1 | inconclusive: 21%
28 | Cc1nc2ccccc2c2c1C(=O)N(c1ccccc1Cl)C2=O | inconclusive: 21%
29 | COc1ccc(CCc2n[nH]c(CC(C)C)n2)cc1OC | inconclusive: 12%
30 | O=C(CN1CCN(Cc2ccccc2F)S1(=O)=O)Nc1ccc(Cl)cc1F | inconclusive: 10%
31 | CSc1ccc(-c2nc(CN3C[C@H](O)[C@@H](N4CCOCC4)C3)c(C)o2)cc1 | inconclusive: 28%
32 | COc1ccc(F)c(-c2cc3c(cc2C(N)=O)OCO3)c1 | inconclusive: 10%
33 | COCC(=O)N(C)C(Cc1ccc(F)cc1)C1CCN(C(=O)c2ccc(-c3ccccc3)cc2)CC1 (centres undefined) | inactive
34 | CC1=C(C(=O)Nc2ccccn2)C(c2ccc(C)cc2)C2=C(CC(C)(C)CC2=O)N1 (centres undefined) | inconclusive: 13%
35 | O=[N+]([O-])c1cc2c(cc1C=Nc1ccc(O)c(-c3nc4ccccc4o3)c1)OCO2 | active: 35%
36 | COc1cc(OC)cc(C(=O)Nc2c3c(nn2-c2cc(C)cc(C)c2)CSC3)c1 | inactive
37 | O=C(O)CCCC(=O)N[C@H]1CO[C@H]2[C@@H]1OC[C@@H]2Nc1nccc(-c2cccs2)n1 | inactive
38 | CCSc1cnn(-c2ccccc2)c(=O)c1SCC | inconclusive: 28%
39 | Fc1cccc(CN2CCC(N3CCCCCC3)CC2)c1 | inactive
40 | OC[C@H]1O[C@@H](n2cnc3c(N[C@H]4C[C@H]5CC[C@@H]4C5)ncnc32)[C@H](O)[C@@H]1O | inconclusive: 13%

Row | SMILES | inhibition
41 | OCCn1c(-c2ccc(Cl)cc2)csc1=Nc1ccccc1 | active: 61%
42 | COc1ccc(C(=O)N2C[C@]3(C)C[C@H]2CC(C)(C)C3)cc1OC1CCN(C(C)C)CC1 | inconclusive: 25%
43 | CN(C)c1ncccc1CNc1ccc2cc(Cl)ccc2n1 | inactive
44 | C=CCN(Cc1ccccc1Cl)C(=O)[C@H](N)Cc1ccccc1 | inconclusive: 18%
45 | O=[N+]([O-])c1ccc(CSc2nnc(-c3ccncc3)n2Cc2ccccc2)cc1 | inconclusive: 12%
46 | CCCn1c(CCCNC(=O)CC)nc2ccccc21 | inconclusive: 11%
47 | O=C(c1ccc[n+]([O-])c1)N1CCC2(CCCN(CC3CCCCC3)C2)C1 (centres undefined) | inconclusive: 16%
48 | O=[N+]([O-])c1cc(CN2CCCC2)c2cccnc2c1O | inconclusive: 28%
49 | O=C1CSC(c2cccc(Cl)c2Cl)N1C1CCCCC1 (centres undefined) | inactive
50 | O=C(CSc1nc2ccc([N+](=O)[O-])cc2[nH]1)Nc1nccs1 | inactive
51 | Cc1cc2c(c(C)c1Cl)CN(Cc1ccc3c(c1)OCO3)CO2 | inconclusive: 12%
52 | Cc1nc(CN(C)C(=O)c2ccc3cccc(Cl)c3n2)cs1 | inactive
53 | CCC(Sc1nc2c(c(=O)n1-c1ccccc1)SCC2)C(=O)OC (centres undefined) | inconclusive: 10%
54 | COc1cc(OC)cc(C(=O)Nc2c(C(=O)Nc3cccc(F)c3)oc3ccccc23)c1 | inactive
55 | O=C(OCc1ccccc1)c1cc2ccccc2oc1=O | inconclusive: 17%
56 | CC(=O)N1CCC(C(=O)NC[C@@H]2C=C(C)[C@H](CC(=O)NCc3ccccn3)C[C@H]2C(C)C)CC1 | inconclusive: 11%
57 | COC(=O)C1=C(C)Nc2nc(SCc3ccccc3F)[nH]c(=O)c2C1c1cccnc1 (centres undefined) | inactive
58 | Cc1ccc(-n2nnnc2SCC(=O)c2ccc(O)cc2)cc1 | inconclusive: 16%
59 | Cc1cccc(Nc2nnc(C(C)(C)C)c(=O)[nH]2)c1 | inactive
